In publication doi:10.1101/2022.08.05.502996 one finds binding data, which are given here for one substance.

Amino acid sequences for entries named in this document (tags omitted).
UniProt Q9FX32: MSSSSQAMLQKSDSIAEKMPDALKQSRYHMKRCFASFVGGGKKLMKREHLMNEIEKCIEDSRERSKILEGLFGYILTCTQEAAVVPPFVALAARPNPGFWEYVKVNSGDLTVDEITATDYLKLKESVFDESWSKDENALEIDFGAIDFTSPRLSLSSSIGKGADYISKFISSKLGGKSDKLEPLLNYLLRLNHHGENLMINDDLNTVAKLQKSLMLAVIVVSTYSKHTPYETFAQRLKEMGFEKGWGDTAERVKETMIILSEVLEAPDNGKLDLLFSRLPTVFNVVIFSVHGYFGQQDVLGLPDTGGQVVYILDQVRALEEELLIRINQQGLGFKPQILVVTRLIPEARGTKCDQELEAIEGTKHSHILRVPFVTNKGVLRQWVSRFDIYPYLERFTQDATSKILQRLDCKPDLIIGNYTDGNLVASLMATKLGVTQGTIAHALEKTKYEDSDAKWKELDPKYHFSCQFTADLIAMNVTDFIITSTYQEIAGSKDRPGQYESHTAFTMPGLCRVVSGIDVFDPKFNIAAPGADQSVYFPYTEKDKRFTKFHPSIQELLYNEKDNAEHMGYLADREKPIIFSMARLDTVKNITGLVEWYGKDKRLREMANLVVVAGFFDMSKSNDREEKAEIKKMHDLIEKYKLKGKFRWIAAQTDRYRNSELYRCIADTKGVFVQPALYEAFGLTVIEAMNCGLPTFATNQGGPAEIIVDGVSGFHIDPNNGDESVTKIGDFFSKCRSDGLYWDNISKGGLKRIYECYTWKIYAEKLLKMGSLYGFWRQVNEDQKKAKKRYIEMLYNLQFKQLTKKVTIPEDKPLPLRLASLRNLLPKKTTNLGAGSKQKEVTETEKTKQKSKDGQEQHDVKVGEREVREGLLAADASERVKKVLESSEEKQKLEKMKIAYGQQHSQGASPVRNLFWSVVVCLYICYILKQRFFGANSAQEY

These are yes or no findings as the source states them, for the method shown. In cells and extracts the contact can be indirect. Some binding calls cover weakened binding; strength is not graded here. Tags and fused reporters may be left off the sequences shown.

This experiment has as its target T1, PDLP6-YFP (Arabidopsis thaliana) (UniProt Q9ZU94).
T1 sequence: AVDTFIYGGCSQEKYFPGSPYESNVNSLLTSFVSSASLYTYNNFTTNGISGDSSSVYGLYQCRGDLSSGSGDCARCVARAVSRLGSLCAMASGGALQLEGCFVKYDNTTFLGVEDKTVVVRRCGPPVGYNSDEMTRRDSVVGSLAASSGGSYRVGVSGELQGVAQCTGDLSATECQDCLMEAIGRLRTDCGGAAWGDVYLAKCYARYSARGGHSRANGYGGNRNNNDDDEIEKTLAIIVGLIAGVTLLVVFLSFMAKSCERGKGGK
In words: co-IP.

On to “SUS6-HF (from UniProt Q9FX32 1-942) (enzyme)”, for which the binding result is given as “binds”.
